The nature of the series: Glycated, oxidized and nitrated free adducts and amino acids in plasma ultrafiltrate by LC-MS/MS. As to conditions: children with ASD with respect to healthy controls. On the set-up: species or system human.

Consider 4 molecules from patent US12044684B2, “Methods for diagnosing an autistic spectrum disorder” (QATAR UNIVERSITY, priority 2018, dated 2024).

Regarding `N=C(N)NCCC[C@H](N)C(=O)O` [arg, arginine], the “plasma conventional amino acid metabolome, change” value was “increases”.

As to `N[C@@H](CCC(=O)O)C(=O)O` [glu, glutamate], the “plasma conventional amino acid metabolome, change” value is recorded as “increases”.

Consider `C[C@@H](O)[C@H](N)C(=O)O` [thr, threonine], for which the “plasma conventional amino acid metabolome, change” value is recorded as “increases”.

Take `N[C@@H](Cc1c[nH]c2ccccc12)C(=O)O` [trp, tryptophan]: the “plasma conventional amino acid metabolome, change” value is “decrease”.
